Drawing on PubChem BioAssay AID493014 (National Center for Advancing Translational Sciences (NCATS), 2011), this text covers AC50 for 64 compounds.

Some of the results follow. The main result of the screen is listed elsewhere. These columns were measured beside it and carry no call. Compounds called inactive in the main read-out are mostly missing here. The note in brackets gives the kind of curve behind each potency; many fits are weak.

The assay in a line: qHTS Assay to Find Inhibitors of Chronic Active B-Cell Receptor Signaling. Conditions: ABC-DLBCL IkBa-CBG/CBR reporter, luminescence ratio (green luciferase fused to IkBa over red control in TMD8 lymphoma cells), 4 h. The essentials:
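TMD8 human ABC-DLBCL cells with doxycycline-inducible IκBα–green luciferase fusion and unfused red luciferase, in 0.5% FBS medium; compounds up to 46 uM, 4 h at 37C. Green/red luminescence ratio, filter-overlap corrected, fitted to concentration-response curves.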
(In general: In qHTS, concentration-response curves come from the screen itself.)

Setting [1] is: measured here: CBR red luminescence, cell number.
Setting [2] is: measured here: IkBa-CBG green luminescence.

Take `CC1CCc2c(nc3ncnn3c2N2CC(C)OC(C)C2)C1` (stereo unspecified): the AC50 under setting [1] was 11.2 µM [falling, partial curve].

Regarding `COC(=O)c1ccc(C(=O)OC)c(NC(=O)COC(=O)C2CCCCC2)c1`, the AC50 under setting [1] is 6.51 µM [falling, single point].

In the case of `Cc1cccc(/C=N\NC(=O)c2sccc2-n2cccc2)c1`, the AC50 under setting [1] was 1.58 µM [rising, partial curve].

Take `O=C(NC(=S)Nc1ccc(Cl)c(C(=O)O)c1)c1ccco1`: the AC50 under setting [1] was 1.41 µM [falling, full curve].

For the compound `CSc1ccccc1C(=O)Nc1ncc(C)s1`, the AC50 under setting [1] is 29.1 µM [falling, single point].

Consider `CC(=O)c1ccc2noc(-c3cccc(C)c3)c2c1`, for which, under setting [1], the AC50 was 11.2 µM [falling, partial curve, poor fit].

Turning to `CN1CCN(c2ccc(Cl)cc2NC(=O)/C=C/c2ccc(F)cc2)CC1`, under setting [1], the AC50 is 35.5 µM [falling, single point].

For `Cc1noc(C)c1S(=O)(=O)N(C)C[C@H]1Oc2c(NC(=O)Nc3ccc4c(c3)OCO4)cccc2C(=O)N([C@H](C)CO)C[C@@H]1C`, the AC50 under setting [1] was 2.31 µM [rising, full curve, poor fit].

Consider `CN1CCN(c2nc3nonc3nc2N2CCN(C)CC2)CC1`, for which the AC50 under setting [1] is 20 µM [falling, single point].

For the compound `Cc1ccc(-c2nc3ccccc3[nH]2)s1`, the AC50 under setting [1] was 29.1 µM [falling, single point].

On to `CCCCSc1nnc(CNC(=O)C23CC4CC(CC(C4)C2)C3)n1Cc1ccccc1`, for which the AC50 under setting [1] was 13 µM [falling, single point] and the AC50 under setting [2] was 20.6 µM [rising, partial curve, poor fit].

For `Cc1ccc(C)c(Cn2nnc3c(=O)[nH]c(C4CCN(S(=O)(=O)c5ccc(S(=O)(=O)NC6CC6)cc5)CC4)nc32)c1`, under setting [1], the AC50 is 7.08 µM [falling, full curve].

As for `O=C(O)[C@@H]1CCCN1C(=O)CCc1c[nH]c2ccccc12`, the concentration at half-maximal activity (AC50) under setting [1] was 20 µM [rising, single point].

With `CCCn1ncc(CN2CCC(C(=O)Nc3cccc(-c4cccc(F)c4)c3)CC2)c1C`, under setting [1], the AC50 was 35.5 µM [falling, single point].

Consider `Cc1ccccc1N(CC(=O)NCc1ccccc1)C(=O)CCC(=O)Nc1nccs1`, for which the AC50 under setting [1] is 35.5 µM [falling, partial curve, poor fit].

On to `Cc1cccc(N2C(=O)C(Oc3ccc(Cl)cc3Cl)C2C=O)c1C` (stereo unspecified), for which the AC50 under setting [1] is 29.1 µM [rising, single point].

As for `CCc1c(C)nc(SC/C=C/c2ccccc2)[nH]c1=O`, the AC50 under setting [1] is 6.31 µM [rising, partial curve].

As to `NNC(=O)CS(=O)(=O)CS(=O)(=O)CC(=O)NN`, the AC50 under setting [1] is 35.5 µM [rising, single point].

Regarding `Cn1c2ccccc2c2ncn(Cc3ccco3)c(=O)c21`, the AC50 under setting [1] was 22.4 µM [falling, single point].

As to `CC1(C(=O)Nc2cccc(C(F)(F)F)c2)CO1` (stereo unspecified), the AC50 under setting [1] is 35.5 µM [falling, single point].

For the compound `COc1ccc2nc(NC(=O)Cc3ccc(OC)c(S(=O)(=O)N4CCOCC4)c3)sc2c1`, the AC50 under setting [1] was 18.4 µM [falling, partial curve, poor fit].

Consider `Cc1c(C(=O)N/N=C/c2cccnc2)sc(=S)n1C`, for which, under setting [1], the AC50 is 20.6 µM [falling, single point].

As to `CN(C)CCCN(C(=O)CCOc1ccccc1)c1nc2ccc(F)cc2s1`, the AC50 under setting [1] was 3.16 µM [falling, full curve].

`CCOC(=O)Cc1csc(NC(=O)/C=C/c2ccccc2Cl)n1`: the AC50 under setting [1] is 4.47 µM [falling, partial curve].

For the compound `C=CCn1c(SCC(=O)Nc2sccc2C(N)=O)nc2ccc(Cl)cc2c1=O`, the concentration at half-maximal activity (AC50) under setting [1] was 5.01 µM [falling, full curve, poor fit].

For `CCC(C(=O)NC(C)CCc1ccccc1)n1nc(C)n2c(cc3occc32)c1=O` (stereo unspecified), the AC50 under setting [1] is 22.4 µM [falling, single point].

`S=C(c1ccc(-c2cccc(Cl)c2)o1)N1CCCCC1`: the AC50 under setting [1] was 10 µM [rising, partial curve, poor fit].

For the compound `CCc1nc2ccc(C(=O)N3CCN(c4ccc([N+](=O)[O-])cc4)CC3)cc2nc1CC`, under setting [1], the AC50 is 14.1 µM [falling, single point].

As for `CCOc1ccccc1NC(=O)COc1ccc2c(c1)OCO2`, the AC50 under setting [1] is 3.16 µM [falling, full curve, poor fit].

As to `CN1CCN(Cc2nc3ccccc3c(=O)n2Cc2nc(-c3ccc([N+](=O)[O-])cc3)cs2)CC1`, the AC50 by setting is: under setting [1], 32.6 µM [falling, single point]; under setting [2], 29.1 µM [rising, partial curve, poor fit].

In the case of `CCCn1c(C)cc(/C=C(\C#N)C(=O)OCC(=O)NC(=O)NC(C)(C)C)c1C`, the AC50 under setting [1] was 3.66 µM [falling, partial curve, poor fit].

As for `CSc1nncc(/C(C)=N\Nc2ccccc2)n1`, the AC50 under setting [1] is 0.355 µM [rising, full curve, poor fit].

With `O=C(CSc1nc2ccccc2s1)NNC(=S)Nc1ccc(Br)cc1`, the AC50 under setting [1] was 11.2 µM [rising, partial curve, poor fit].

Regarding `NNC(=O)c1cccc(COc2ccc(Br)cc2)c1`, under setting [1], the AC50 was 23.1 µM [falling, single point].

Consider `CCOC(=O)C1CCN(C(=O)COc2ccc3c(C)cc(=O)oc3c2)CC1`, for which, under setting [1], the AC50 was 18.4 µM [falling, partial curve].

On to `COC(=O)CCc1sc(Nc2ccc(Br)cc2)nc1-c1ccc(OC)cc1`, for which the AC50 under setting [1] is 29.1 µM [rising, partial curve, poor fit].

Regarding `CCn1cnc2sc(-c3ccccc3)cc2c1=O`, the AC50 under setting [1] is 29.1 µM [falling, single point].

With `COc1ccc(C[C@H]2CN3C(=NC[C@@H]3C(C)C)N2CCNC(=O)CCC2CCCCC2)cc1`, the AC50 under setting [1] was 11.2 µM [falling, partial curve].

For the compound `Cc1ccc(S(=O)(=O)N2CCN(C(=O)CSc3nccn3C)CC2)cc1`, the AC50 under setting [1] was 5.62 µM [falling, single point].

As to `CCCCn1c(=O)nc2n(-c3ccc(C)cc3)c3ccccc3cc-2c1=O`, the AC50 under setting [1] is 25.9 µM [rising, partial curve, poor fit].

Regarding `COc1ccc(/C=C(\NC(=O)c2ccco2)C(=O)NCc2ccco2)cc1`, under setting [1], the AC50 was 1.58 µM [falling, partial curve, poor fit].

For the compound `CCn1c2ccccc2c2cc(/C=N/n3c(C)nnc3C)ccc21`, the AC50 under setting [2] is 4.61 µM [falling, partial curve, poor fit].

With `CCN(C(=S)Nc1cccc(C)c1)c1ccccc1`, the AC50 under setting [1] was 9.2 µM [rising, single point].

On to `Cn1cccc1CNC(=O)Nc1ccc(Cl)cc1`, for which, under setting [1], the AC50 is 28.2 µM [falling, single point].

Turning to `Cn1c(N)c(C(=O)COC(=O)C2CCN(S(=O)(=O)c3cccs3)CC2)c(=O)n(C)c1=O`, under setting [1], the AC50 is 14.1 µM [falling, partial curve, poor fit].

Consider `CC(C)c1ccccc1NC(=O)c1cnccn1`, for which the AC50 under setting [1] is 2.59 µM [rising, partial curve, poor fit].

`C/C(=N\Nc1nnc(-c2ccccc2)c(-c2ccccc2)n1)c1cccc([N+](=O)[O-])c1`: the AC50 under setting [1] was 1.26 µM [rising, partial curve].

With `O=C(CNC(=O)c1ccc(F)cc1)c1ccccc1`, the AC50 under setting [1] was 10 µM [falling, partial curve].

`COc1ccc2cc([C@H](C)C(=O)O)ccc2c1`: the AC50 under setting [1] is 23.1 µM [rising, single point].

Turning to `COc1ccc2[nH]c3c(Cl)ncnc3c2c1`, the AC50 under setting [1] was 2.91 µM [falling, full curve].

For `Cc1ccc(CS(=O)(=O)c2ccc(C(=O)N3CCN(c4ccccn4)CC3)cc2[N+](=O)[O-])cc1`, under setting [1], the AC50 is 35.5 µM [falling, single point].

Consider `C=CCn1c(O)c(N=O)c2cc(C)ccc21`, for which the concentration at half-maximal activity (AC50) under setting [1] is 3.55 µM [falling, single point].

As for `O=C(COc1ccccc1)NC1=NCCS1`, under setting [1], the AC50 was 4.11 µM [rising, partial curve].

As for `COc1ccc(-n2c(N)c(C(=O)NCc3ccco3)c3nc4ccccc4nc32)c(OC)c1`, the AC50 under setting [1] is 32.6 µM [falling, single point].

For `O=C(Nc1ccc(F)cc1)N1CCN(c2ccc(F)cc2)CC1`, the AC50 under setting [1] is 14.1 µM [falling, partial curve, poor fit].

Turning to `N#Cc1cccc2cccc(S(=O)(=O)N3CCOCC3)c12`, the AC50 under setting [1] was 11.6 µM [rising, partial curve, poor fit].

Turning to `O=C(Nc1ccc(F)cc1)N1CCn2c(nc3ccccc32)C1`, the AC50 under setting [1] was 18.4 µM [falling, single point].

Take `CCOc1ccc(NC(=O)CN(C)CC(=O)NC2CCCc3ccccc32)cc1OCC` (stereo unspecified): the AC50 under setting [1] was 29.1 µM [falling, single point].

As for `Cc1cccc(-c2cc3nc4c(c(N5CCCC(O)C5)n3n2)CCC4)c1` (stereo unspecified), under setting [1], the AC50 is 3.16 µM [falling, partial curve, poor fit].

On to `Cc1sc(NC(=O)CSc2nnc(COc3ccc(Cl)cc3)n2C)c(C#N)c1C`, for which, under setting [1], the AC50 was 14.1 µM [rising, partial curve].

Regarding `COc1ccc(N/C=C(\[N+](=O)[O-])S(=O)(=O)c2ccccc2)cc1`, under setting [1], the AC50 is 35.5 µM [falling, single point].

Turning to `[O-]/C(=C(\C(=S)Nc1cccc2ccccc12)[n+]1ccccc1)c1ccc(OC(F)F)cc1`, under setting [1], the AC50 was 3.55 µM [falling, partial curve, poor fit].

As for `COc1cc(OCC(=O)NC(C)C)cc2c1C(=O)O[C@@H](C)CCCC(=O)CCCCC2`, the AC50 under setting [1] was 11.2 µM [rising, single point].

In the case of `Cc1cccc(-c2nnc(-c3cccc(NC(=O)Cc4cccs4)c3)o2)c1`, under setting [1], the AC50 is 2.82 µM [rising, partial curve, poor fit].

By AC50 is commonly meant the midpoint of the concentration-response curve, whichever way the signal moves.
